Laboratory results taken from paper PMC10641069, “Intra- and inter-molecular regulation by intrinsically-disordered regions governs PUF protein RNA binding” (Nature Communications, 2023).

Tested on: FBF-2 RBD + LST-1 B peptide
Assay: EMSA
Conditions: 50 uM LST-1 B; EMSA: FBF-2 in 20 mM HEPES pH 7.4, 150 mM NaCl, 0.5 mM TCEP mixed 1:1 with 5 nM final RNA in 10 mM HEPES pH 7.4, 0.01% Tween 20, 0.1 mg/ml BSA, 0.1 mg/ml yeast tRNA; recombinant protein; label: 3'-Cy5

## AUCAUGUGCCAUAC [gld-1 FBEa RNA (EMSA)]
  Kd: 176 nM

Construct, isoform or probe ends are uncertain for at least one entry.
